Data as given in PubChem BioAssay AID493014 (National Center for Advancing Translational Sciences (NCATS), 2011).
This is one part of the list. The main result of the screen is listed elsewhere. These columns were measured beside it and carry no call. Most of these compounds were active or inconclusive in the main read-out, so they are no random draw. The note in brackets gives the kind of curve behind each potency; many fits are weak.

Experiment: qHTS Assay to Find Inhibitors of Chronic Active B-Cell Receptor Signaling
Conditions: ABC-DLBCL IkBa-CBG/CBR reporter, luminescence ratio (green luciferase fused to IkBa over red control in TMD8 lymphoma cells), 4 h
Outline: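 Compounds up to 46 uM were incubated four hours with TMD8 cells whose green CBG68 luciferase is fused to IkappaBalpha; red CBR luminescence normalised the signal, and concentration-effect curves were fitted to fusion, red and ratio data.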

[1] = measured here: CBR red luminescence, cell number
[2] = measured here: IkBa-CBG green luminescence

| SMILES | AC50 [1] | AC50 [2] |
| --- | --- | --- |
| CC(C)(C=O)C1=CC(=O)c2ccccc2C1=O | 9.2 µM [falling, partial curve] | 23.1 µM [rising, single point] |
| CCC(=O)Nc1nc(C)c(-c2csc(Nc3ccc(C(=O)O)cc3)n2)s1 | 2 µM [falling, full curve] | – |
| CN(C)C(=O)c1ccc(COc2ccccc2Br)o1 | 3.66 µM [rising, single point] | – |
| O=C(c1ccc(-c2cccc(Cl)c2)o1)N1CCN(c2ccc([N+](=O)[O-])cc2)CC1 | 6.51 µM [rising, single point] | – |
| CCCCOC(=O)c1ccc(Nc2ncnc3nc[nH]c23)cc1 | 11.6 µM [rising, partial curve] | – |
| COCc1cc(C)nc(SCC(=O)Nc2ccc3c(c2)OCO3)c1C#N | 0.651 µM [rising, partial curve, poor fit] | – |
| CCN=c1scc(C)n1/N=C/c1ccsc1 | 2 µM [rising, full curve] | – |
| Cc1ccc(NC(=O)c2oc3ccccc3c2NC(=O)C2CC2)cc1 | 4.47 µM [falling, full curve, poor fit] | – |
| CC(=O)Nc1ccc(Nc2cc(N3CCOCC3)c3nonc3c2[N+](=O)[O-])cc1 | 6.31 µM [falling, single point] | – |
| CCN(CC)C(=O)C1CCCN(C(=O)Nc2ccccc2)C1 (configuration not stated) | 0.164 µM [falling, full curve, poor fit] | – |
| NC(=O)c1ccc(-c2nnn(CC(=O)N(C3CCCC3)C3CCS(=O)(=O)C3)n2)cc1 (configuration not stated) | 6.51 µM [falling, partial curve] | – |
| O=C(CSc1ccc([N+](=O)[O-])cn1)Nc1cc(C(F)(F)F)ccc1N1CCOCC1 | 11.2 µM [falling, partial curve, poor fit] | – |
| CCOC(=O)N(C)c1ccc(C(O)(C(F)(F)F)C(F)(F)F)cc1 | 0.58 µM [rising, full curve, poor fit] | – |
| COc1ccccc1N1CCN(C(=O)c2cccc3c(=O)c(C)c(-c4ccccc4)oc23)CC1 | 23.1 µM [falling, partial curve, poor fit] | – |
| CCOC(=O)N1CCN(C(=O)c2c[nH]c3ccc(S(=O)(=O)N(C)c4ccc(F)cc4)cc3c2=O)CC1 | 6.31 µM [rising, single point] | – |
| Cc1ccccc1NC(=O)c1sc(NC(=O)C2CC2)nc1C | 35.5 µM [rising, single point] | – |
| O=C(/C=N/NC(=O)c1ccc(Cl)cc1Cl)c1ccccc1 | 0.316 µM [rising, full curve, poor fit] | – |
| COc1ccc(Nc2oc(-c3ccco3)nc2S(=O)(=O)c2ccc(F)cc2)cc1 | 6.51 µM [rising, single point] | – |
| CN(c1ccccc1C(=O)Nc1ccc2c(c1)n(C)c(=O)n2C)S(C)(=O)=O | 35.5 µM [rising, single point] | – |
| CCOC(=O)C1=C(c2ccccc2)NC(SC)=C(C#N)C1c1ccco1 (configuration not stated) | 14.1 µM [falling, single point] | – |
| CCC(C)(C)C1CCC(=NNC(=S)Nc2ccccc2)CC1 (configuration not stated) | 14.1 µM [falling, partial curve, poor fit] | – |

Reformatted: 2 of the compounds above.
SMILES | AC50 [1] | AC50 [2]
CCN=c1scc(C)n1/N=C/c1ccsc1 | 2 µM [rising, full curve] | –
Cc1ccc(NC(=O)c2oc3ccccc3c2NC(=O)C2CC2)cc1 | 4.47 µM [falling, full curve, poor fit] | –

(cont.)

| SMILES | AC50 [1] | AC50 [2] |
| --- | --- | --- |
| COc1ccc(C=NNC(=O)c2ccccc2OCc2ccc(F)cc2)c(OC)c1 | 0.517 µM [falling, full curve, poor fit] | – |
| CCOc1ccccc1CNC(=O)c1cc2oc3ccccc3c2n1C | 0.13 µM [rising, full curve, poor fit] | – |
| NC(=O)c1cc(NC(=O)COC(=O)CCCN2C(=O)c3cccc4cccc(c34)C2=O)cc(C(N)=O)c1 | 3.26 µM [rising, partial curve, poor fit] | – |
| Cc1nc(NC(=O)CCc2ccccc2)sc1C | 10 µM [falling, partial curve, poor fit] | – |
| COc1ccc(C(=O)NCCn2cc(SCC(=O)NCC3CCCO3)c3ccccc32)cc1OC (configuration not stated) | 14.1 µM [falling, partial curve, poor fit] | – |
| Cc1cc(OCCCCCNCCO)ccc1Cl | 29.1 µM [falling, single point] | 23.1 µM [rising, partial curve, poor fit] |
| CCOc1cc(N2CCOCC2)c(OCC)cc1NC(=O)CN1C(=O)NC2(CCc3ccccc32)C1=O (configuration not stated) | 29.1 µM [rising, single point] | – |
| O=C(O)c1c(NC(=O)N2CCCC2)sc2c1CCCC2 | 8.91 µM [falling, partial curve, poor fit] | – |
| CCOC(=O)c1cc(CC)sc1NC(=O)CCC(=O)O | 23.1 µM [falling, single point] | – |
| CC(C)COn1c(=S)[nH]c2ccccc2c1=O | 5.62 µM [rising, single point] | – |
| CCOc1ccc(C(=O)NCC(=O)NC(C)c2ccc(-n3ccnc3)cc2)cc1OCC (configuration not stated) | 1.78 µM [rising, partial curve, poor fit] | – |
| CCc1sc(NC(C)=O)nc1-c1ccccc1 | – | 0.631 µM [rising, partial curve, poor fit] |
| Cc1ccc(-n2ncc3c2CCCC3NC(=O)CCCN2CCCC2=O)cc1C (configuration not stated) | 20 µM [rising, single point] | – |
| CC1(C)CC(=O)C=C(NCCN2CCN(C(=O)Nc3ccc(Cl)c(Cl)c3)CC2)C1 | 6.51 µM [rising, single point] | – |
| O=C(NCCCN1CCCC1)c1ccc(Cn2c(=S)[nH]c3ccc(Br)cc3c2=O)cc1 | 10 µM [falling, partial curve, poor fit] | – |
| O=CN/C=C/c1cc(O)ccc1O | 35.5 µM [falling, single point] | – |
| Cc1occc1C(=O)NNC(=O)Nc1ccc(Cl)c(Cl)c1 | 16.4 µM [falling, single point] | – |
| O=C(/C=C/c1ccccc1[N+](=O)[O-])c1ccccc1Br | 35.5 µM [falling, single point] | – |
| O=[N+]([O-])c1cccc(C2(O)COc3ccccc3O2)c1 (configuration not stated) | 3.16 µM [rising, full curve, poor fit] | – |
| Cc1cc(N/N=C/c2ccc(F)cc2)nc(-n2nc(C)cc2C)n1 | 1.26 µM [falling, full curve, poor fit] | – |
| OC(CN1C2=NCCCN2c2ccccc21)c1ccc2c(c1)OCO2 (configuration not stated) | 25.1 µM [falling, single point] | – |

| SMILES | AC50 [1] | AC50 [2] |
| --- | --- | --- |
| Cc1[nH]nc(SCC(=O)NC2CCCC2)c1[N+](=O)[O-] | 20 µM [falling, single point] | – |
| Cc1ccc2nc(Cl)c(C3CC(c4ccco4)=NN3C(=O)CCCC(=O)O)cc2c1 (configuration not stated) | 7.94 µM [rising, partial curve, poor fit] | – |
| Oc1ccc(-c2n[nH]c(=S)n2-c2ccc3c(c2)OCCO3)c(O)c1 | 20.6 µM [falling, partial curve] | 16.4 µM [falling, partial curve, poor fit] |
| Cc1[nH][nH]c(=O)c1C(c1c(C)[nH][nH]c1=O)c1cn(Cc2ccc(F)cc2)c2ccccc12 | – | 29.1 µM [falling, partial curve, poor fit] |
| O=C(NNC(=O)c1cc2ccccc2o1)c1ccncc1 | 5.8 µM [falling, partial curve] | – |
| C=CCOC(=O)C1=C(C)NC(SCC)=C(C#N)C1c1ccc(Cl)cc1 (configuration not stated) | 12.6 µM [falling, partial curve, poor fit] | – |
| COc1ccc(C(=O)[C@@H]2CC[C@](C)(C(=O)O)C2(C)C)cc1 | 16.4 µM [rising, single point] | – |
| CCNS(=O)(=O)c1ccc(CCC(N)=O)cc1 | 20 µM [rising, single point] | – |
| COc1ccc(Cl)cc1NC(=O)CN(C)C(=O)c1ccc(OCc2ccccc2)c(OC)c1 | 29.1 µM [falling, single point] | – |
| O=C(Nc1ccc(Br)c2cccnc12)c1ccc(Cn2cc([N+](=O)[O-])cn2)o1 | 6.51 µM [falling, single point] | – |
| N#Cc1sc2nc(C3CC3)cc(-c3ccc(Cl)cc3)c2c1N | 29.1 µM [rising, single point] | – |
| CC(C)(C)c1cc[n+](/C(C(=S)Nc2ccccc2F)=C(/[O-])c2ccc3c(c2)OCCO3)cc1 | 22.4 µM [falling, partial curve, poor fit] | – |
| COc1c(Cl)cc(Cl)cc1CNCc1ccccc1 | 8.91 µM [rising, partial curve, poor fit] | – |
| COc1ccc(C2Nc3ccccc3-c3cc(C)nn32)cc1OC (configuration not stated) | 6.31 µM [rising, single point] | – |
| CCOC(=O)CCCSc1nc2sc(C)c(C)c2c(=O)[nH]1 | 0.461 µM [falling, full curve] | – |
| Cc1ccc(N2CCN(/N=C/c3sccc3C)CC2)cc1 | 2.31 µM [rising, single point] | – |
| CC(C)(C)c1ccc(OCc2ccc(C(=O)NN)o2)cc1 | 3.16 µM [falling, full curve] | – |
| O=C(N/N=C/c1cn(-c2cccs2)nc1-c1ccccc1)c1ccccc1O | 23.1 µM [falling, partial curve] | – |
| Cc1noc(C)c1CSc1ccc(Br)cc1 | 10 µM [rising, partial curve, poor fit] | – |
| CCc1cccc(C)c1NC(=O)C1CN(S(=O)(=O)c2ccccc2)CCN1S(=O)(=O)c1ccccc1 (configuration not stated) | 32.6 µM [falling, single point] | 25.9 µM [rising, partial curve, poor fit] |
| COc1ccc2c(c1)OC[C@H]1[C@H]2N2C(=O)CN(Cc3ccc(F)cc3)C(=O)[C@@]2(C)[C@H]1c1ccccc1 | 25.9 µM [falling, single point] | – |
